## Results of single-concentration screens

Amino acid sequences for entries named in this document (tags omitted). Residues count along the entry.
UniProt A4I591, 1-473: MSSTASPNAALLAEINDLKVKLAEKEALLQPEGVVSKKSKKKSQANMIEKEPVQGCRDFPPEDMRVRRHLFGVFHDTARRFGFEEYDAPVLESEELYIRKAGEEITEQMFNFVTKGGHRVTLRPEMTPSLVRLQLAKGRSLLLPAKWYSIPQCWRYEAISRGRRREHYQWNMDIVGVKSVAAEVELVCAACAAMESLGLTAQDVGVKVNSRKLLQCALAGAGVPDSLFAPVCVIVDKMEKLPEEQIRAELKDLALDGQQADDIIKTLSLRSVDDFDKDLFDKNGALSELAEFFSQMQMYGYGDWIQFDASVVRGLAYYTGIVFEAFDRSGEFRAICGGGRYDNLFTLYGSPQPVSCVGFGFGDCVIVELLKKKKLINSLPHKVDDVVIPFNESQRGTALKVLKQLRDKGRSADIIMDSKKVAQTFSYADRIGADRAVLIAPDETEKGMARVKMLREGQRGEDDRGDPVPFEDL
UniProt Q4DA54, 1-478: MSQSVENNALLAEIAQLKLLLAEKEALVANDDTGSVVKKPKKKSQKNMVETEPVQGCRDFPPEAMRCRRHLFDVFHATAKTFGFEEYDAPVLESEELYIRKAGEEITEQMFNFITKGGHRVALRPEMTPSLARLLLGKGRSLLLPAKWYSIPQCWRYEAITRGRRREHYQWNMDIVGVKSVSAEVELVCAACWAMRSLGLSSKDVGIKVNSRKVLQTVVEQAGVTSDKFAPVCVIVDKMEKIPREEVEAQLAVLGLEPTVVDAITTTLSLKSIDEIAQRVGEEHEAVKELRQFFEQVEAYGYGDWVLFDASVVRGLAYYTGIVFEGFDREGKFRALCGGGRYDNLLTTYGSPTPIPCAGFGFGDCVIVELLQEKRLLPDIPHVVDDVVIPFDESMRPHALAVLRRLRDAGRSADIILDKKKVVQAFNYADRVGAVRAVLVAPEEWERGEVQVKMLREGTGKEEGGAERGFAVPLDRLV
UniProt P9WPC5, whole entry: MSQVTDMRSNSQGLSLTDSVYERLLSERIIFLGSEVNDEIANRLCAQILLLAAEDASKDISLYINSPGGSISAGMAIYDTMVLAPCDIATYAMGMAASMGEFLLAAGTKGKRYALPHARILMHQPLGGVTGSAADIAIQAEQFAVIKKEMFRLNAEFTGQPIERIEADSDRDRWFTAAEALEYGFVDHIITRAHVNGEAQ
UniProt P9WPC3, whole entry partner: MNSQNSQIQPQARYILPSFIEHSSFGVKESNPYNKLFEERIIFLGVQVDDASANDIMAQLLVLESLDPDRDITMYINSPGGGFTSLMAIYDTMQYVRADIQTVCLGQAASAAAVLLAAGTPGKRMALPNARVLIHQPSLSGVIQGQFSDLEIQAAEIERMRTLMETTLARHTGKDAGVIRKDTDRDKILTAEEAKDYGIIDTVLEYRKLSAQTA

LiHisRS: 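Histidine-tRNA ligase, Leishmania infantum (UniProt A4I591). Enzyme assay of histidyl-tRNA synthetase; the read-out is not stated. Concentration: 30 µM. Higher reads as stronger inhibition (inferred: compounds with an IC50 in retests scored well above the rest). The assay is labelled LdHisRS but filed under L. infantum. Size under these conditions: about 69,000 compounds, about 410 of them at 50% or above in at least one test.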
TcHisRS: 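Histidine-tRNA ligase, Trypanosoma cruzi CL Brener (UniProt Q4DA54). Enzyme assay of histidyl-tRNA synthetase; the read-out is not stated. Compounds at 30 µM. Higher reads as stronger inhibition (inferred: compounds with an IC50 in retests scored well above the rest). Size under these conditions: about 69,000 compounds, about 31 of them at 50% or above in at least one test.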
ClpP1P2: 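ClpP1P2, Mycobacterium tuberculosis (UniProt P9WPC5 and UniProt P9WPC3). Protease assay of ClpP1P2, read by the AMC dye that it sets free. Compounds at 50 µM. Higher reads as stronger inhibition, judged from the few compounds that gave an IC50. Most other retested compounds had strongly negative values. Size under these conditions: about 69,000 compounds, about 10 of them at 50% or above in at least one test.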

The filed quantity is “Percent Effect” (%).
How 0% and 100% were set is not recorded. Most values in the screen are low, and negative values occur.
The compounds are a random part of those screened.

CC(C)(C)C(=O)N1C[C@@H](F)[C@@H](OCc2nc3ncccc3[nH]2)C1 read LiHisRS: 17.57%; TcHisRS: 2.174%; ClpP1P2: 0.07177%.
Cn1ccnc1C(=O)N1CCCC1c1ccc(C(=O)N2CCOCC2)s1 (stereo not shown) read LiHisRS: 25%; TcHisRS: 6.522%; ClpP1P2: -6.355%.
CNC(=O)c1cc(NC(=O)NC(C)CCc2cccn2C)ccc1F (stereo not shown) read LiHisRS: 8.065%; TcHisRS: 7.143%; ClpP1P2: -9.143%.
COc1ccc(CC(=O)Nc2ccc3ncn(C)c(=O)c3c2)cc1 read LiHisRS: 12.36%; TcHisRS: 1.554%; ClpP1P2: -3.438%.
CN1CCOC(CNC(=O)CCc2cc(F)ccc2F)C1 (stereo not shown) read LiHisRS: 16%; TcHisRS: 13.25%; ClpP1P2: 1.904%.
Cc1cs/c(=N\C(=O)c2c3c(nc4onc(C)c24)CCC3)[nH]1 read LiHisRS: 17.39%; TcHisRS: 9.901%; ClpP1P2: -3.813%.
O=C(c1cc2c(s1)CCC2)N1CCCCC1Cn1cccn1 (stereo not shown) read LiHisRS: 15.38%; TcHisRS: 4.981%; ClpP1P2: 9.546%.
CC(=O)Nc1ccc(Cl)c(C(=O)N(C)Cc2nc(C)c[nH]2)c1 read LiHisRS: 10.42%; TcHisRS: 10.13%; ClpP1P2: -4.275%.
Cc1cncc(C(=O)N2CCNCC2C(=O)Nc2ccc(C)nc2)c1 (stereo not shown) read LiHisRS: 13.68%; TcHisRS: 5.946%; ClpP1P2: -22.7%.
Cc1ccc2c(c1)C(=O)NCC1(CCN(C(=O)c3sccc3C)CC1)O2 read LiHisRS: 10%; TcHisRS: 7.491%; ClpP1P2: -0.8088%.
CCN1CCN(C(C)CNC(=O)Nc2nc3ccccc3s2)CC1 (stereo not shown) read LiHisRS: 11.71%; TcHisRS: 6.667%; ClpP1P2: 5.036%.
COCC(=O)NCc1cc(=O)n2c(n1)CN(CC1CC1)CCC2 read LiHisRS: 0.9091%; TcHisRS: -5.291%; ClpP1P2: 0.7551%.
CC(NCc1ccc(-c2ccc(Cl)cc2)o1)c1nnc2n1CCC2 (stereo not shown) read LiHisRS: 18.18%; TcHisRS: 19.57%; ClpP1P2: -3.716%.
Cc1nc(-c2cc(C(=O)NCC(C)(C)CO)c3ccccn23)cs1 read LiHisRS: 26.5%; TcHisRS: -0.5348%; ClpP1P2: -17.06%.
CCCN(CC1CC1)C(=O)CN1CCCC1c1cnn(C)c1 (stereo not shown) read LiHisRS: 4.839%; TcHisRS: 6.186%; ClpP1P2: -0.6939%.
Cc1cc(N2CCC3(CCC(=O)N(CCO)C3)CC2)nc(N(C)C)n1 read LiHisRS: 12.82%; TcHisRS: 1.685%; ClpP1P2: -4.93%.
C/C(NC(=O)c1ccccn1)=C1\C(=O)C[C@@H]2[C@H]1C2(C)C read LiHisRS: 9.89%; TcHisRS: 4.95%; ClpP1P2: 9.79%.
Cc1noc([C@@H]2C[C@H](NC(=O)Nc3ccccc3)CN2C)n1 read LiHisRS: -6.757%; TcHisRS: 0%; ClpP1P2: -1.794%.
CCc1ncc2c(n1)CN(CC(=O)Nc1cc(C)on1)CC2 read LiHisRS: 0%; TcHisRS: 1.695%; ClpP1P2: -25.05%.
Cc1ccc(OCc2cccc(C(=O)N(C)CCC#N)c2)cn1 read LiHisRS: 2.857%; TcHisRS: 4.124%; ClpP1P2: 10.14%.
CC(C)(C)C(O)CN1CCN(CC(=O)NC2CCOCC2)CC1 (stereo not shown) read LiHisRS: 14.04%; TcHisRS: 7.563%; ClpP1P2: 6.024%.
CCc1oc(C(=O)N2CC[C@H]3CC[C@@H](C2)N3)cc1CN(CC)CC read LiHisRS: 12.59%; TcHisRS: 1.493%; ClpP1P2: -13.6%.
NC(=O)N1CCCC(C(=O)Nc2cccc(Cl)c2)C1 (stereo not shown) read LiHisRS: 17.46%; TcHisRS: 4.04%; ClpP1P2: 2.968%.
CNC(=O)c1cccc(CN2CCN(C3=NCC(C)(C)S3)CC2)c1 read LiHisRS: 19.57%; TcHisRS: 4.95%; ClpP1P2: -1.006%.
COC(=O)CCCC(=O)N1CCCCC1c1ccc(F)cc1 (stereo not shown) read LiHisRS: 10.99%; TcHisRS: 11.45%; ClpP1P2: 7.568%.
CCCN1CCC(Nc2nc(CC)ns2)CC1 read LiHisRS: 8.824%; TcHisRS: 5.82%; ClpP1P2: -8.53%.
CC(NC(=O)c1ccoc1)c1ccc2c(c1)CCC(=O)N2 (stereo not shown) read LiHisRS: 17.31%; TcHisRS: 5.714%; ClpP1P2: -1.358%.
O=C(c1ccc2nncn2c1)N1CCCC1c1noc(C2CC2)n1 (stereo not shown) read LiHisRS: 9.375%; TcHisRS: 3.191%; ClpP1P2: -6.927%.
CCc1c(C)nc2ccccc2c1N1CCC(O)CC1 read LiHisRS: 9.333%; TcHisRS: -1.734%; ClpP1P2: 11.1%.
CCN1CCC(NC(=O)N(C)Cc2csc3ccccc23)CC1 read LiHisRS: 17.78%; TcHisRS: 11.52%; ClpP1P2: 1.411%.
Cc1ccc(C(=O)N2CCC3(CC2)COCCN(S(C)(=O)=O)C3)cc1C read LiHisRS: 4.839%; TcHisRS: -1.754%; ClpP1P2: -12.34%.
Cc1nc(N2CCCC2)ncc1-c1cc(O)nc(N2CCN(C)CC2)n1 read LiHisRS: 0%; TcHisRS: 3.478%; ClpP1P2: -9.829%.
Cc1nccc(N2C[C@@H](CN3CCCC3)[C@@H](CO)C2)n1 read LiHisRS: 1.399%; TcHisRS: 3.483%; ClpP1P2: -10.1%.
CC(C)(C)OC(=O)N1CCN(C(=O)CCn2cccn2)CC1 read LiHisRS: 7.339%; TcHisRS: 2.041%; ClpP1P2: -20.95%.

For reference, 3 entries once more:

Compound	LiHisRS	TcHisRS	ClpP1P2
CC(NC(=O)c1ccoc1)c1ccc2c(c1)CCC(=O)N2 (stereo not shown)	17.31%	5.714%	-1.358%
Cc1nccc(N2C[C@@H](CN3CCCC3)[C@@H](CO)C2)n1	1.399%	3.483%	-10.1%
CN1CCOC(CNC(=O)CCc2cc(F)ccc2F)C1 (stereo not shown)	16%	13.25%	1.904%

From ChEMBL document CHEMBL3988442, “University of Dundee, Small-Polar-MMV Screening Library” (2021).